Measured values published in the supplement of paper PMC8960247.
Counter-ions that a name gives are not always drawn. The data scatter; read single values as rough.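 The cells are immortalized human renal angiomyolipoma cells carrying an empty vector, so TSC2 stays lost. Viability was read by a luminescent ATP assay and normalized to vehicle-treated wells on each plate, in low-serum medium where TSC2-rescued cells do not grow.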

Tested on: 621-102 (TSC2-deficient)
Assay: relative viability vs DMSO (fraction); higher = less cytotoxic
Settings: serum: 0.1% FBS, 72 h

Compound	relative viability (0.0128 nM)	relative viability (0.064 nM)	relative viability (0.32 nM)	relative viability (1.6 nM)	relative viability (8 nM)	relative viability (40 nM)	relative viability (200 nM)	relative viability (1000 nM)	relative viability (5000 nM)
CC[C@H](Nc1ncnc2[nH]cnc12)c1nc2cccc(F)c2c(=O)n1-c1ccccc1 [CAL-101]	0.538	1.07	1.03	1.07	0.904	1.16	0.952	0.834	0.719
O=C(O)CC[C@H]1CC[C@@](c2cc(F)ccc2F)(S(=O)(=O)c2ccc(Cl)cc2)CC1 [MK-0752]	0.865	0.887	0.79	0.851	0.865	0.665	0.712	0.746	0.674
C=CC(=O)Nc1cccc(Oc2nc(Nc3ccc(N4CCN(C)CC4)cc3)ncc2Cl)c1 [WZ3146]	0.789	0.782	0.828	0.355	0.776	0.764	0.647	0.0565	0.00569
Cc1ccc(Nc2nccc(N(C)c3ccc4c(C)n(C)nc4c3)n2)cc1S(N)(=O)=O [Pazopanib HCl]	0.896	0.78	0.866	0.761	1.02	1.01	0.756	0.643	0.00858
C[C@@H]1CCN(C(=O)CC#N)C[C@@H]1N(C)c1ncnc2[nH]ccc12	1.07	1.04	0.9	0.908	0.931	0.908	0.22	0.0694	0.0504
O=C(O)c1ccc2c(c1)nc(Nc1cccc(Cl)c1)c1ccncc12 [CX-4945 (Silmitasertib)]	0.999	0.928	0.811	0.808	0.877	0.852	0.893	0.827	0.375
CCc1nc(N)nc(N)c1-c1ccc(Cl)cc1 [Pyrimethamine]	0.737	0.741	0.843	0.771	0.838	0.782	0.794	0.689	0.788
Nc1nc(Cl)nc2c1ncn2[C@H]1C[C@H](O)[C@@H](CO)O1 [Cladribine]	0.989	0.991	1.08	0.983	0.697	0.709	0.462	0.0663	0.0103
COc1cc2nccc(Oc3ccc(NC(=O)C4(C(=O)Nc5ccc(F)cc5)CC4)cc3)c2cc1OC [XL184]	0.551	0.798	0.814	0.736	0.87	0.806	0.82	0.547	0.00711
CC[C@H](c1ccc(O)cc1)[C@@H](CC)c1ccc(O)cc1 [Hexestrol]	0.934	1.03	1.05	0.903	0.898	0.917	0.866	0.778	0.0962
Cc1ncc(-c2ccnc(Nc3ccc(S(C)(=O)=O)cc3)n2)n1C(C)C [AZD5438]	1.06	1.09	1.11	1.04	0.79	0.777	0.634	0.167	0.0225
CC(=O)O[C@@]12CO[C@@H]1C[C@H](O)[C@@]1(C)C(=O)[C@H](O)C3=C(C)[C@@H](OC(=O)[C@H](O)[C@@H](NC(=O)OC(C)(C)C)c4ccccc4)C[C@@](O)([C@@H](OC(=O)c4ccccc4)[C@H]21)C3(C)C [Docetaxel]	0.895	0.767	0.274	0.0189	0.0151	0.0112	0.0147	0.0117	0.0157
O=C(Cc1ccc(-c2ccc(OCCN3CCOCC3)cc2)cn1)NCc1ccccc1 [KX2-391]	0.584	0.696	0.569	0.507	0.446	0.225	0.0636	0.0352	0.0423
Cc1ccc(NC(=O)c2cccc(N(C)C)c2)cc1NC(=O)c1ccc(O)cc1	0.726	0.502	0.566	0.443	0.527	0.57	0.522	0.484	0.689
COc1cccc(Nc2c(C(N)=O)cnc3c(C)cc(S(=O)(=O)c4cccc(C(=O)N(C)C)c4)cc23)c1	0.738	0.773	0.79	0.819	0.787	0.706	0.765	0.82	0.827
Cc1cc(Nc2cc(CN3CCOCC3)c3nc(C)c(Cc4ccc(Cl)cc4F)n3n2)n[nH]1	1.17	1.13	1.04	0.186	0.0414	0.0143	0.00702	0.00691	0.00558
C=CC(=O)N1CCC[C@@H](n2nc(-c3ccc(Oc4ccccc4)cc3)c3c(N)ncnc32)C1	0.918	0.931	0.758	0.875	0.728	0.755	0.732	0.643	0.272
COC(=O)N1CCN(Cc2cccc(NC(=O)Nc3ccc(C)nc3)c2F)CC1 [Omecamtiv mecarbil]	0.46	0.677	0.639	0.89	0.642	0.701	0.677	0.74	0.577
CC[N+](CC)(CC)CCOc1cccc(OCC[N+](CC)(CC)CC)c1OCC[N+](CC)(CC)CC [Gallamine Triethiodide]	0.695	0.751	0.705	0.709	0.321	0.657	0.767	0.778	0.785
COc1cc(OC)c(NC(=O)Nc2cc(C)on2)cc1Cl	0.881	0.885	0.868	0.96	0.952	0.874	0.83	0.782	0.685
CN(C)Cc1cccc(N=C(c2ccccc2)c2c(O)[nH]c3cc(C(=O)N(C)C)ccc23)c1	0.836	0.736	0.827	0.823	0.845	0.774	0.891	0.9	0.798

Fetched one by one from the entries so far (2):
Compound	relative viability (0.0128 nM)	relative viability (0.064 nM)	relative viability (0.32 nM)	relative viability (1.6 nM)	relative viability (8 nM)	relative viability (40 nM)	relative viability (200 nM)	relative viability (1000 nM)	relative viability (5000 nM)
O=C(O)c1ccc2c(c1)nc(Nc1cccc(Cl)c1)c1ccncc12 [CX-4945 (Silmitasertib)]	0.999	0.928	0.811	0.808	0.877	0.852	0.893	0.827	0.375
CC[C@H](c1ccc(O)cc1)[C@@H](CC)c1ccc(O)cc1 [Hexestrol]	0.934	1.03	1.05	0.903	0.898	0.917	0.866	0.778	0.0962

Later entries

Compound	relative viability (0.0128 nM)	relative viability (0.064 nM)	relative viability (0.32 nM)	relative viability (1.6 nM)	relative viability (8 nM)	relative viability (40 nM)	relative viability (200 nM)	relative viability (1000 nM)	relative viability (5000 nM)
CC(C)c1cc(-c2ccc(F)c3ccccc23)nc(N)n1	1.13	1.03	1.02	0.956	0.732	0.684	0.796	0.165	0.695
CCS(=O)(=O)c1cccc(-c2cc(C(=O)NC3CCN(C)CC3)c(C)c3[nH]c4ncc(C)cc4c23)c1 [TAK-901]	0.944	0.996	0.999	1.02	0.836	0.15	0.0689	0.0302	0.0117
Cc1ccc(C(=O)N(CCCN)[C@@H](c2nc3cc(Cl)ccc3c(=O)n2Cc2ccccc2)C(C)C)cc1	0.807	0.778	0.799	0.78	0.241	0.158	0.145	0.145	0.0102
Cn1c(=O)c(F)c(Nc2ccc(I)cc2F)c2c(=O)n(C[C@@H](O)CO)cnc21 [TAK-733]	0.965	0.912	0.998	0.926	0.926	0.847	0.666	0.466	0.295
Cc1nc(Nc2ncc(C(=O)Nc3c(C)cccc3Cl)s2)cc(N2CCN(CCO)CC2)n1 [Dasatinib]	0.908	0.984	0.784	0.745	0.781	0.636	0.573	0.439	0.337
COCC[n+]1c2c(n(Cc3cnccn3)c1C)C(=O)c1ccccc1C2=O [YM155]	0.853	0.788	0.842	0.697	0.553	0.481	0.369	0.323	0.0338
O=C(CN1C(=O)C2(CCCC2)NC[C@H]1c1cc(F)cc(F)c1)Nc1ccc2c(c1)C[C@@]1(C2)C(=O)Nc2ncccc21 [MK 3207 hydrochloride]	0.862	0.871	0.799	0.752	0.842	0.771	0.795	0.916	0.733
CC(C)(C)NC(=O)[C@H]1CC[C@H]2[C@@H]3CC[C@H]4NC(=O)C=C[C@]4(C)[C@H]3CC[C@]12C [Finasteride]	0.738	0.674	0.747	0.733	0.622	0.774	0.558	0.522	0.656
O=C1N=C(O)NC1(c1ccccc1)c1ccccc1 [Phenytoin sodium]	1.07	1.06	1.11	1.07	0.99	0.792	0.909	0.793	0.839
COc1cc2c(Oc3ccc(NC(=O)C4(C(=O)Nc5ccc(F)cc5)CC4)cc3F)ccnc2cc1OCCCN1CCOCC1	0.997	0.976	0.966	0.899	0.977	0.918	0.0323	0.0145	0.00974
COc1ccccc1N1CCN(CC(O)COc2cccc3ccccc23)CC1 (stereo not drawn) [Naftopidil Dihydrochloride]	1.39	1.54	1.72	1.23	0.647	0.776	1.01	1.48	0.807
Cn1cc(/C=C/C(=O)c2cccc(F)c2)cc1/C=C/C(=O)NO [MC1568]	0.833	0.742	0.824	0.849	0.755	0.768	0.722	0.695	0.579
CO[C@H]1/C=C\C=C(/C)C(=O)NC2=CC(=O)C(NCCN(C)C)=C(C[C@@H](C)C[C@H](OC)[C@H](O)[C@@H](C)/C=C(\C)[C@@H]1OC(N)=O)C2=O [17-DMAG]	1.35	1.54	1.76	1.45	0.736	0.663	1.02	0.569	0.0125
CCC1=C[C@@H]2CN(C1)Cc1c([nH]c3ccccc13)[C@@](C(=O)OC)(c1cc3c(cc1OC)N(C)[C@H]1[C@@](O)(C(=O)OC)[C@H](OC(C)=O)[C@]4(CC)C=CCN5CC[C@@]31[C@H]54)C2 [Vinorelbine(Navelbine)]	0.287	0.863	0.853	0.219	0.035	0.0213	0.0184	0.0187	0.0182
COc1ccc2[nH]c([S@@+]([O-])Cc3ncc(C)c(OC)c3C)nc2c1 [Esomeprazole Sodium]	0.656	0.673	0.734	0.687	0.671	0.681	0.692	0.763	0.621
CO[C@H]1C[C@@H]2CC[C@@H](C)[C@@](O)(O2)C(=O)C(=O)N2CCCC[C@H]2C(=O)O[C@H]([C@H](C)C[C@@H]2CC[C@@H](OCCO)[C@H](OC)C2)CC(=O)[C@H](C)/C=C(\C)[C@@H](O)[C@@H](OC)C(=O)[C@H](C)C[C@H](C)/C=C/C=C/C=C/1C [Everolimus (RAD001)]	1.03	0.999	0.916	0.81	0.514	0.319	0.284	0.236	0.153
Cc1ccc(CN2CCNCC2)cc1NC(=O)CNc1ccc(F)c(F)c1	0.235	0.372	0.484	1.72	1.85	0.0756	0.0808	0.0453	0.676
CN(C)C(=O)[C@H](O)[C@H](Cc1ccccc1)NC(=O)c1cc2cc(Cl)ccc2[nH]1	0.635	0.692	0.65	0.635	0.727	0.699	0.741	0.728	0.892
O=C1c2c(O)ccc(O)c2C(=O)c2c(NCCNCCO)ccc(NCCNCCO)c21 [Mitoxantrone HCl]	0.792	0.787	0.787	0.337	0.0242	0.0361	0.0106	0.00801	0.00764
CC[C@H]1OC(=O)[C@H](C)[C@@H](O[C@H]2C[C@@](C)(OC)[C@@H](O)[C@H](C)O2)[C@H](C)[C@@H](O[C@@H]2O[C@H](C)C[C@H](N(C)C)[C@H]2O)[C@](C)(OC)C[C@@H](C)C(=O)[C@H](C)[C@@H](O)[C@]1(C)O [Clarithromycin]	0.928	0.926	0.896	0.861	0.856	0.76	0.765	0.621	0.735
CCOC(=O)C1=C(COCCN)NC(C)=C(C(=O)OC)C1c1ccccc1Cl (stereo not drawn) [Amlodipine besylate (Norvasc)]	0.907	0.958	0.964	0.831	0.885	0.831	0.826	0.708	0.525
